Reference: doi:10.1101/2025.02.07.637115 (bioRxiv, 2025)
These are yes or no findings as the source states them, for the method shown. Some entries that bind do so weakly or less than the wild type. Tags and fused reporters may be left off the sequences shown.

Biological target: T1, ActRIIB2-Fc (trap containing two ActRIIB ECDs) (human) (UniProt Q13705)
T1 sequence: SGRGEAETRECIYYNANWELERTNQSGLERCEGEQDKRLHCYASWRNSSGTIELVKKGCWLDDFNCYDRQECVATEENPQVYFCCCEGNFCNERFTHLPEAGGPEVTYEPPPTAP
Assay: SPR

binding: binds
B1: deglycosylated BMP6 (ligand)
chain: SASSRRRQQSRNRSTQSQDVARVSSASDYNSSELKTACRKHELYVSFQDLGWQDWIIAPKGYAANYCDGECSFPLNAHMNATNHAIVQTLVHLMNPEYVPKPCCAPTKLNAISVLYFDDNSNVILKKYRNMVVRACGCH
modifications: deglycosylated with PNGase F
